Measured values taken from patent US20030104377.
No signal at the amounts used counts as a negative. Construct, isoform or probe ends are uncertain for at least one entry.

Sequences of proteins named here, by UniProt entry; tags and fusion partners are left off. Residues count along the entry.
UniProt P24821, 23-2201: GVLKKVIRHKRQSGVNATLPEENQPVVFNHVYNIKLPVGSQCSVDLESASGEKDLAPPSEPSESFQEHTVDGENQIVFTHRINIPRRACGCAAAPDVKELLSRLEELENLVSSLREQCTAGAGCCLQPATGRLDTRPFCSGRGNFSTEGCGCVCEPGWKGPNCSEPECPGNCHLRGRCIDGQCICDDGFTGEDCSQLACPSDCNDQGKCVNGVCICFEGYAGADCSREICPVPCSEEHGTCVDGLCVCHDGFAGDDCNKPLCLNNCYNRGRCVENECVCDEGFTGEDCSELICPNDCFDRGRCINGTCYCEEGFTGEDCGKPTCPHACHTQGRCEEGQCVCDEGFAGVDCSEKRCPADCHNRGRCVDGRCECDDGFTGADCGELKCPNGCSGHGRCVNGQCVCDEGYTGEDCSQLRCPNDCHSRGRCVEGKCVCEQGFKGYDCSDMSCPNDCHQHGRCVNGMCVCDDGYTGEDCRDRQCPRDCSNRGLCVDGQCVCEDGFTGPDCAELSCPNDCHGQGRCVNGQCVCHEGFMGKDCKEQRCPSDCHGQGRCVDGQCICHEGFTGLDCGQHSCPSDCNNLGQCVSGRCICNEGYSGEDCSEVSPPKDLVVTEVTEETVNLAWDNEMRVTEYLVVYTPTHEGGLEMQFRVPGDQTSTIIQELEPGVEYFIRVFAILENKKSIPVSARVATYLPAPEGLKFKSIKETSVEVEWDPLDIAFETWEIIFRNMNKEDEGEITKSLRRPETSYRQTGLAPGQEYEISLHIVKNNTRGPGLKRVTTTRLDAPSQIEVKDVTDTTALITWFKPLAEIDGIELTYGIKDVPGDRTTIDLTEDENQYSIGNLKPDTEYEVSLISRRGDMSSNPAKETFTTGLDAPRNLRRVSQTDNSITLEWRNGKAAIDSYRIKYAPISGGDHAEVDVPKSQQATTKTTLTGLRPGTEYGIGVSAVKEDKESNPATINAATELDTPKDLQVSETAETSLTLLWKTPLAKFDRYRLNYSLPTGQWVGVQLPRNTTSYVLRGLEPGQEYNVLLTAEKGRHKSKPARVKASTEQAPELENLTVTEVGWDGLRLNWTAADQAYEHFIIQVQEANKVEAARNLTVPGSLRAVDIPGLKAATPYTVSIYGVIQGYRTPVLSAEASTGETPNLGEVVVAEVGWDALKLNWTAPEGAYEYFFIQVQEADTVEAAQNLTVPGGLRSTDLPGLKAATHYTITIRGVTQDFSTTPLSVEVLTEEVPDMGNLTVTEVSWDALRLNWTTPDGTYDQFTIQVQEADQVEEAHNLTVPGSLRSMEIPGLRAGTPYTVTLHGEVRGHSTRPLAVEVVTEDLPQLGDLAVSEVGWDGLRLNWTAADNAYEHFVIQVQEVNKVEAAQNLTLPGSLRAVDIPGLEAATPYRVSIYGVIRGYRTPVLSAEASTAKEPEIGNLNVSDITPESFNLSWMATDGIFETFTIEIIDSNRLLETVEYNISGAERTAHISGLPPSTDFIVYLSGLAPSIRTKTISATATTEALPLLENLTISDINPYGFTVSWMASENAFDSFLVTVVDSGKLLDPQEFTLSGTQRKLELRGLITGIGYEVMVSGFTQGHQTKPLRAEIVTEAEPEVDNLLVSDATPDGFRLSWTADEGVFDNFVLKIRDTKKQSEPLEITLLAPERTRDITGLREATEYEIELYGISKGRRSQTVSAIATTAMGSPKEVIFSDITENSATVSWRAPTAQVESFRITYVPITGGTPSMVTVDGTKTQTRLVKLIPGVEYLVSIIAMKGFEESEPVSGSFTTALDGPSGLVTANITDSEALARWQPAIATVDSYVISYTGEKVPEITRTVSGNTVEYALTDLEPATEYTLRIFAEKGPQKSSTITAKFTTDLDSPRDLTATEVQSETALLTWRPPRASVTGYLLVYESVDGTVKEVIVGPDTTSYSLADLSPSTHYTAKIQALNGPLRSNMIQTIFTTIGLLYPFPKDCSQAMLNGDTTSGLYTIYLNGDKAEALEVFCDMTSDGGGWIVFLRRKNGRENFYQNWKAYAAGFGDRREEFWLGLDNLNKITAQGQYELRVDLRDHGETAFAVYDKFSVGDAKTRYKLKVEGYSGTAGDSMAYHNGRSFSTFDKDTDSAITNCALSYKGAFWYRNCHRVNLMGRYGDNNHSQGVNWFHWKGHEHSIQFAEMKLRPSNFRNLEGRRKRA

Biological target: Tenascin-C (Homo sapiens) (UniProt P24821)
Assay: filter binding
Settings: protein details: Chemicon (Temecula, CA)

With “GGGAGGACGAUGCGGAACAAUGCACUCGUCGCCGUAAUGGAUGUUUUGCU [TN9.3]” as the sequence, how does the Kd (2'-F C and U, 3'-3' cap, variant of TN9) read?
Its Kd is greater than 10 µM.

For “GGGAGGACGCGUCGCCGUAAUGGAUGUUUUGCUCCCUG [TTA1-Red]”, which Kd (as TTA1, 5' amine conjugated to Rhodamine-Red-X [(CH2CH2O)6 spacer between 9 and 10 (left out), 2'-F: 8,10,12,13,15,16,18,21,25,27-30,32-37, 2'-OMe: 2-7,19,20,22-24,26,31,38, 2'-OH G: 1,9,11,14,17, 5' amine-Rhodamine-Red-X, 3'-3' dT cap (left out)], identical affinity to TTA1, label: Rhodamine-Red-X 5', letters built from the parent sequence and the stated change, variant of TTA1) is on record?
The Kd was 0.005 µM.

Does “GGGAGGACGAUGCGGAACAAUGCACUCGUCGCCGUAAUGGAUGUUUUGCUCCCUG [TN9.4M4]” bind (2'-F C and U, 2'-OMe G28,G31,G34, 3'-3' cap, variant of TN9.4)?
Result: no binding

For “GGGAGGACGAUGCGGAUAAUUCGACACCAACCAGGUCCCGGAAAUCAUCCCUCUGCAGACGACUCGCCCGA [TN8]”, which Kd (2'-F C and U, orphan) is on record?
The Kd was greater than 10 µM.

Which Kd (2'-F C and U, orphan) does the source give for “GGGAGGACGAUGCGGAAGUUUAGUGCUCCAGUUCCGACACUCCUCUACUCAGCCCCAGACGACUCGCCCGA [TN1]” here?
Its Kd is greater than 10 µM.
